{
  "sequences": {"note": "The chains behind the UniProt entries cited, without tags or fusion partners.", "UniProt P20581": "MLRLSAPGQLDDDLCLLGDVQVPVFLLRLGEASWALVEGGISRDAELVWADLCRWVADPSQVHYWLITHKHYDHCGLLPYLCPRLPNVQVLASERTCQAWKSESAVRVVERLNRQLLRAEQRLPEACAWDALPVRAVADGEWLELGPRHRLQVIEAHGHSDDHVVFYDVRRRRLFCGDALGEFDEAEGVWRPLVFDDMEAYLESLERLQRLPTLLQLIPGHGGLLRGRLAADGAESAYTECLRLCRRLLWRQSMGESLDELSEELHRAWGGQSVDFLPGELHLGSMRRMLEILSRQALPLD", "UniProt P54292": "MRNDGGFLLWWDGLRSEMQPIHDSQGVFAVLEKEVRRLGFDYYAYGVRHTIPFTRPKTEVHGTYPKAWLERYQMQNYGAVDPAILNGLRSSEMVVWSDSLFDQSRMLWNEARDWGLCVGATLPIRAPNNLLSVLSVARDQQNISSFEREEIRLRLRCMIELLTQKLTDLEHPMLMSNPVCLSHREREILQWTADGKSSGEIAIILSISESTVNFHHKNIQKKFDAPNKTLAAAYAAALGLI"},
  "source": "paper PMC13192270",
  "about": "“RhlR quorum-sensing receptor ligand sensitivity regulates the differential expression of phenazine genes in Pseudomonas aeruginosa” (Journal of Bacteriology, 2026)",
  "key": {"[1]": {"biological_target": "6x-His-PqsE (Pseudomonas aeruginosa) (UniProt P20581)", "experiment": "pull-down; 6x-His-PqsE and untagged RhlR co-expressed from pETDuet-1 in E. coli BL21 (DE3) with 200 µM C6HSL; soluble fraction on Ni-NTA magnetic beads, 4°C, 45 min; 50 mM Tris-HCl pH 8.0, 150 mM NaCl, 0.1% Triton X-100, wash 30 mM imidazole, elution 300 mM imidazole; input and output on SDS-PAGE, Coomassie"}, "[2]": {"biological_target": "6x-His-PqsE (Pseudomonas aeruginosa) (UniProt P20581)", "experiment": "SEC; large scale (1 L): RhlR co-purified with 6x-His-PqsE on Ni-NTA beads, then Superose-6 in 50 mM Tris HCl pH 8.0, 150 mM NaCl, 200 µM C6HSL"}},
  "note": "These are yes or no findings as the source states them, for the method shown. For some assays here: Binding seen in cells or lysates may run through a third protein. Some entries that bind do so weakly or less than the wild type.",
  "data": [
    {"substance": "WT RhlR (from UniProt P54292 1-241) (receptor)", "values": [
      {"measurement": "binding", "setting": "[1]", "result": "binds"},
      {"measurement": "binding", "setting": "[2]", "result": "binds"}
    ]}
  ]
}
